In PubChem BioAssay AID248 (DTP/NCI, 2004):
The list does not hold the whole screen: it gathers tests that were run many times, whatever their T/C, doses with no T/C, and many T/C values between a quarter and a half above the control. Other doses and runs of a compound stand elsewhere. T/C is the treated group as % of the vehicle group. Some doses have a count of surviving animals in place of a T/C: the source files T/C as zero there, which appears to mark a toxic dose or a test without result, not a measured value. Some survivor counts are full or nearly so, which does not show that the dose was tolerated: the source hardly ever lists a survival T/C far under the control, and the zero likely stands for such cases as well. Survivors were counted at the toxicity check, usually on the fifth day, unless a day is given; later deaths do not show. Schedule codes are those of the source, taken here to give the interval after Q, in days (D) or hours (H), and the number of doses after X. Some schedules carry Z or #; the key to these is not given. Some entries hold several experiments; their values stand side by side, smallest first. Where survival is the endpoint, the PubChem record calls one and a half times the control and up active, and a quarter to a half above the control has no call in these data; cut-offs in other NCI protocols can differ. Some T/C values are followed by the survivors on the day toxicity was checked, most often the fifth; without a count, all were alive then.

System: L1210 leukemia ip in BDF1 mice, survival T/C
Assay: NCI In Vivo Anticancer Drug Screen. Data for tumor model L1210 Leukemia (intraperitoneal) in B6D2F1 (BDF1) mice
Details: T/C endpoint: mean survival time, higher T/C = longer survival
[1] = dose: 400.0 mg/kg/injection, schedule: Q01DX009 (ip), vehicle: saline
[2] = dose: 400.0 mg/kg/injection, schedule: Q01DX001 (ip), vehicle: carboxymethylcellulose (CMC)
[3] = dose: 400.0 mg/kg/injection, schedule: Q01DX009 (ip), vehicle: Klucel (hydroxypropylcellulose) (HPC)
[4] = dose: 100.0 mg/kg/injection, schedule: Q01DX009 (ip), vehicle: saline
[5] = dose: 400.0 mg/kg/injection, schedule: Q04DX003 (ip), vehicle: saline
[6] = dose: 200.0 mg/kg/injection, schedule: Q04DX003 (ip), vehicle: acetone
[7] = dose: 200.0 mg/kg/injection, schedule: Q01DX001 (ip), vehicle: carboxymethylcellulose (CMC)
[8] = dose: 300.0 mg/kg/injection, schedule: Q01DX001 (ip), vehicle: saline

O=c1[nH]cnc2c1nnn2C1OC(CO)C(O)C1O (stereo not drawn)
T/C (dose: 40.0 mg/kg/injection, schedule: Q01DX009 (ip), vehicle: saline): 129 and 142 % of control | T/C (dose: 60.0 mg/kg/injection, schedule: Q01DX009 (ip), vehicle: saline): 141 and 143 % of control

O=C1CN(Br)C(=O)N1Br
survivor count [1]: 2 of 6

c1ccc(C[Se]Cc2ccccc2)cc1
survivor count (dose: 200.0 mg/kg/injection, schedule: Q04DX003 (ip), vehicle: other): 3 of 6 | survivor count (dose: 400.0 mg/kg/injection, schedule: Q04DX003 (ip), vehicle: other): 0 of 6

NCC(=O)NO
survivor count (dose: 296.0 mg/kg/injection, schedule: Q01DX015 (ip), vehicle: water): 0 of 6 | survivor count (dose: 300.0 mg/kg/injection, schedule: Q01DX015 (ip), vehicle: water): 5 of 6 | survivor count (dose: 444.0 mg/kg/injection, schedule: Q01DX015 (ip), vehicle: water): 1 of 6 | survivor count (dose: 666.0 mg/kg/injection, schedule: Q01DX015 (ip), vehicle: water): 0 of 6 | survivor count (dose: 1000.0 mg/kg/injection, schedule: Q01DX015 (ip), vehicle: water): 0 of 6

Cc1cc(N=NC(=N)N)c(C(C)C)cc1NN=C(N)N
survivor count (dose: 240.0 mg/kg/injection, schedule: Q01DX Z (ip), vehicle: carboxymethylcellulose (CMC)): 0 of 6 | survivor count (dose: 240.0 mg/kg/injection, schedule: Q01DX Z (oral), vehicle: carboxymethylcellulose (CMC)): 3 of 6 | survivor count (dose: 480.0 mg/kg/injection, schedule: Q01DX Z (ip), vehicle: carboxymethylcellulose (CMC)): 0 of 6

Nc1[nH]c(=O)ncc1F
survivor count [2]: 1 of 6 | survivor count (dose: 800.0 mg/kg/injection, schedule: Q01DX001 (ip), vehicle: carboxymethylcellulose (CMC)): 0 of 6

O=C(C=C(C(F)(F)F)C(F)(F)F)c1ccco1
survivor count (dose: 50.0 mg/kg/injection, schedule: Q01DX009 (ip), vehicle: saline with Tween-80): 1 of 6

Brc1ccc(C2=CSC3=NCCN23)cc1
survivor count (dose: 100.0 mg/kg/injection, schedule: Q04DX003 (ip), vehicle: Klucel (hydroxypropylcellulose) (HPC)): 0 of 6 and 2 of 6 | survivor count (dose: 200.0 mg/kg/injection, schedule: Q04DX003 (ip), vehicle: Klucel (hydroxypropylcellulose) (HPC)): 0 of 6 | survivor count (dose: 400.0 mg/kg/injection, schedule: Q04DX003 (ip), vehicle: Klucel (hydroxypropylcellulose) (HPC)): 0 of 6

CCCCN(C)/N=N/c1nc[nH]c1C(=O)OC
survivor count (dose: 100.0 mg/kg/injection, schedule: Q01DX015 (ip), vehicle: carboxymethylcellulose (CMC)): 6 of 6

N=c1ncn(Cc2ccccc2)c2nc[nH]c12
survivor count [3]: 0 of 6

O=P1(O)[O][Sn]([c]2ccccc2)([c]2ccccc2)[O]1
survivor count (dose: 25.0 mg/kg/injection, schedule: Q01DX009 (ip), vehicle: saline with Tween-80): 0 of 3 | survivor count (dose: 50.0 mg/kg/injection, schedule: Q01DX003 (ip), vehicle: saline): 1 of 3 | survivor count (dose: 100.0 mg/kg/injection, schedule: Q01DX003 (ip), vehicle: saline): 1 of 3 | survivor count (dose: 200.0 mg/kg/injection, schedule: Q01DX003 (ip), vehicle: saline): 0 of 3

CCCC1(C)COB(c2ccc(C)cc2)OC1
survivor count (dose: 25.0 mg/kg/injection, schedule: Q04DX003 (ip), vehicle: Klucel (hydroxypropylcellulose) (HPC)): 4 of 4

c1c(NC2=NCCO2)cc2c3c1CCCN3CCC2
survivor count [4]: 3 of 6 | survivor count (dose: 200.0 mg/kg/injection, schedule: Q01DX009 (ip), vehicle: saline): 3 of 6

COC(=O)C1=C(C(=O)OC)C2CC1C1OC21 (stereo not drawn)
survivor count [1]: 0 of 6

CP1(=O)CC2OC23CCCCC31 (stereo not drawn)
T/C (dose: 50.0 mg/kg/injection, schedule: Q01DX009 (ip), vehicle: other): 132 % of control

COCCCNc1ncnc2[nH]ncc12
survivor count [5]: 3 of 6

CCC(C(C)=O)C(C)=O.CCC(C(C)=O)C(C)=O.[Cu]
survivor count (dose: 50.0 mg/kg/injection, schedule: Q01DX001 (ip), vehicle: saline): 0 of 6 | survivor count (dose: 100.0 mg/kg/injection, schedule: Q01DX001 (ip), vehicle: saline): 0 of 6 | survivor count (dose: 200.0 mg/kg/injection, schedule: Q01DX001 (ip), vehicle: saline): 0 of 6

C#CC(C)OCC(C)OC(C)=O (stereo not drawn)
survivor count [6]: 3 of 6 | survivor count (dose: 400.0 mg/kg/injection, schedule: Q04DX003 (ip), vehicle: acetone): 0 of 6

CNCCCC1c2ccccc2C=Cc2ccccc21
survivor count (dose: 50.0 mg/kg/injection, schedule: Q01DX009 (ip), vehicle: saline): 2 of 6 | survivor count (dose: 100.0 mg/kg/injection, schedule: Q04DX003 (ip), vehicle: saline): 2 of 4 | survivor count (dose: 200.0 mg/kg/injection, schedule: Q04DX003 (ip), vehicle: saline): 0 of 4 | survivor count [5]: 0 of 4

CC1(N)CCC(C(C)(C)N)CC1 (stereo not drawn)
survivor count (dose: 200.0 mg/kg/injection, schedule: Q01DX009 (ip), vehicle: saline with Tween-80): 5 of 6 | survivor count (dose: 400.0 mg/kg/injection, schedule: Q01DX009 (ip), vehicle: saline with Tween-80): 0 of 6

CC1CCCN(C)C1 (stereo not drawn)
survivor count (dose: 200.0 mg/kg/injection, schedule: Q01DX009 (ip), vehicle: Klucel (hydroxypropylcellulose) (HPC)): 0 of 6 | survivor count [3]: 0 of 6

CCc1ccccc1N1CCN(C(=O)c2cc(OC)c(OC)c(OC)c2)CC1
T/C (dose: 150.0 mg/kg/injection, schedule: Q01DX009 (ip), vehicle: saline): 142 % of control [5 of 6 alive] | survivor count (dose: 168.0 mg/kg/injection, schedule: Q01DX Z (ip), vehicle: carboxymethylcellulose (CMC)): 6 of 6 | survivor count [6]: 3 of 6 | survivor count (dose: 252.0 mg/kg/injection, schedule: Q01DX Z (ip), vehicle: carboxymethylcellulose (CMC)): 3 of 6 | survivor count (dose: 335.0 mg/kg/injection, schedule: Q01DX009 (ip), vehicle: saline): 3 of 6 | survivor count (dose: 378.0 mg/kg/injection, schedule: Q01DX Z (ip), vehicle: carboxymethylcellulose (CMC)): 3 of 6 | survivor count (dose: 400.0 mg/kg/injection, schedule: Q01DX001 (ip), vehicle: saline): 1 of 6 | T/C [1]: 135 % of control | survivor count (dose: 567.0 mg/kg/injection, schedule: Q01DX Z (ip), vehicle: carboxymethylcellulose (CMC)): 0 of 6

CCN(CC)CCNC(Cc1ccccc1)c1cccc(OC)c1 (stereo not drawn)
survivor count [7]: 2 of 4 | survivor count [2]: 0 of 4

CCCCCCCCCCC(CCCCCCC)(CCCCCCCC)CCCCCCCCC (stereo not drawn)
T/C (dose: 100.0 mg/kg/injection, schedule: Q01DX001 (ip), vehicle: saline with Tween-80): 126 % of control | T/C (dose: 200.0 mg/kg/injection, schedule: Q01DX001 (ip), vehicle: saline with Tween-80): 129 % of control

CN(C(=O)OCc1ccccc1)C(Cc1ccccc1)C(=O)O (stereo not drawn)
survivor count (dose: 400.0 mg/kg/injection, schedule: Q01DX001 (ip), vehicle: other): 2 of 6

O=C(NOCc1cscn1)NC1CCCCC1
survivor count (dose: 150.0 mg/kg/injection, schedule: Q01DX001 (ip), vehicle: saline): 1 of 6 | survivor count [8]: 0 of 6

CC1(N2CCCC2)CCCCC1
survivor count [7]: 2 of 4 | survivor count [2]: 1 of 4

COC(=O)c1cc(Cl)cc(C(=O)OC)n1
survivor count [4]: 5 of 6

CC(=O)N(C)C
T/C (dose: 1500.0 mg/kg/injection, schedule: Q01DX Z (ip), vehicle: other): 139 % of control | T/C (dose: 2000.0 mg/kg/injection, schedule: Q01DX Z (ip), vehicle: other): 131 % of control | T/C (dose: 2500.0 mg/kg/injection, schedule: Q01DX Z (ip), vehicle: other): 144 % of control [4 of 6 alive]

O=C1NC2C=CC1/C=C\C=C/2 (stereo not drawn)
survivor count (dose: 400.0 mg/kg/injection, schedule: Q04DX002 (ip), vehicle: saline): 0 of 3

C=CCC1(CCCC)C(=O)NC(=O)NC1=O
survivor count [8]: 1 of 6
